Reference: PMC7181697
These are yes or no findings as the source states them, for the method shown. A result given as binding can be weak or reduced; the word gives no strength. Sequences can lack the tags named with a protein.

Molecular target: REV7^WT-SHLD3(1–82) (human)
Experiment: SEC; Superdex 200 Increase 10/300 GL, 20 mM Tris/HCl pH 8.0, 150 mM NaCl, 1% glycerol, 1 mM TCEP; proteins mixed and incubated 10 min on ice; 0.5 ml fractions on SDS-PAGE, Coomassie; both purified

- binding: binds
B1: MBP-REV3(1847–2021) (domain or fragment, UniProt O60673 1847-2021)
chain: MLTPTPDSSPRSTSSPSQSKNGSFTPRTANILKPLMSPPSREEIMATLLDHDLSETIYQEPFCSNPSDVPEKPREIGGRLLMVETRLANDLAEFEGDFSLEGLRLWKTAFSAMTQNPRPGSPLRSGQGVVNKGSSNSPKMVEDKKIVIMPCKCAPSRQLVQVWLQAKEEYERSKK
